According to the supplement of paper PMC10727501:
This is one part of the list. Single values are uncertain here, since repeats match poorly.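 Researchers measured free-swimming zebrafish larvae's O-bend response probability to dark flashes (naive: first five; training: remaining flashes of four 60-flash blocks; test: later 60-flash block) and OMR turning toward alternating leftward/rightward LED motion. Six treated larvae were compared to sixty 0.1% DMSO controls, with |SSMD|≥2 marking a hit.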

system: Danio rerio larvae (5 dpf, TLF); experiment: Prob-Test (SSMD vs DMSO vehicle); higher = higher than vehicle (e.g. higher dark-flash O-bend response probability, or better optomotor performance); conditions: 10 µM; pre-incubation: 30-90 min

Compound | Prob-Test
Cc1cnc(Nc2ccc(N3CCN(C)CC3)cc2)nc1Nc1cccc(S(=O)(=O)NC(C)(C)C)c1 | 0.18
CN1C2CCCC1CC(NC(=O)c1nn(C)c3ccccc13)C2.Cl (stereo not given) [Granisetron HCl] | 0.233
NC(=O)c1cnccn1 [Pyrazinamide] | 0.16
CCC[C@@H]1C[C@@H](C(=O)N[C@@H](C(C)Cl)[C@H]2O[C@@H](SC)[C@H](O)[C@@H](O)[C@H]2O)N(C)C1.Cl (stereo not given in full) [Clindamycin HCl] | 0.058
Cc1ncc([N+](=O)[O-])n1CC(C)O (stereo not given) [Secnidazole] | -0.142
OC[C@H]1O[C@@H](Oc2cc(O)cc(/C=C/c3ccc(O)cc3)c2)[C@@H](O)[C@@H](O)[C@@H]1O [Polydatin] | -0.662
O=C(Nc1cccc(Nc2ncc(Br)c(NCCc3cnc[nH]3)n2)c1)N1CCCC1 | 0.382
CC(=O)NS(=O)(=O)c1ccc(NC(=O)c2ccccc2C(=O)O)cc1 [Phthalylsulfacetamide] | -0.0998
O=c1c(O)c(-c2cc(O)c(O)c(O)c2)oc2cc(O)cc(O)c12 [Myricetin] | 0.476
COc1ccc(C2CNC(=O)C2)cc1OC1CCCC1 (stereo not given) [Rolipram] | 0.42
CNS(=O)(=O)CCc1ccc2[nH]cc(C3CCN(C)CC3)c2c1.Cl [Naratriptan] | 0.253
CCN1CCN(Cc2ccc(Nc3ncc(F)c(-c4cc(F)c5nc(C)n(C(C)C)c5c4)n3)nc2)CC1.CS(=O)(=O)O | 0.22
Cc1c(-c2ccccc2)oc2c(C(=O)OCCN3CCCCC3)cccc2c1=O.Cl [Flavoxate HCl] | 0.416
Cc1ccccc1CN1C2=NCCN2C(=O)C2=C1CCN(Cc1ccccc1)C2 | -0.419
CN[C@H](CC(=O)O)C(=O)O [NMDA (N-Methyl-D-aspartic acid)] | -0.0621
C[C@H]1C[C@H]2[C@@H]3CCC4=CC(=O)C=C[C@]4(C)[C@@H]3C(=O)C[C@]2(C)[C@]1(O)C(=O)CO [Meprednisone] | 0.54

system: Danio rerio larvae (5 dpf, TLF); experiment: Prob-Naive (SSMD vs DMSO vehicle); higher = higher than vehicle (e.g. higher dark-flash O-bend response probability, or better optomotor performance); conditions: 10 µM; pre-incubation: 30-90 min

Compound | Prob-Naive
Cc1cc(C)nc(NS(=O)(=O)c2ccc(NC(=S)NC(=O)COc3ccc(Br)cc3Cl)cc2)n1 | -0.396
NC(=O)c1cccnc1 [Nicotinamide (Vitamin B3)] | -0.503
COc1cc2ncnc(Nc3cccc(Cl)c3)c2cc1OC [AG-1478 (Tyrphostin AG-1478)] | -0.283
N#CC[C@H](C1CCCC1)n1cc(-c2ncnc3[nH]ccc23)cn1 | 0.564
CC(C)[C@@H](C)/C=C/[C@@H](C)[C@@H]1CC[C@H]2C3=CC=C4C[C@@H](O)CC[C@]4(C)[C@@H]3CC[C@@]21C [Ergosterol] | -0.602
CC(C(O)c1ccc(O)cc1)N1CCC(Cc2ccccc2)CC1.CC(C(O)c1ccc(O)cc1)N1CCC(Cc2ccccc2)CC1.O=C(O)[C@H](O)[C@@H](O)C(=O)O (stereo not given) [Ifenprodil Tartrate] | 0.325
NC(=O)c1ncn([C@@H]2O[C@H](CO)[C@@H](O)[C@@H]2O)c1O [Mizoribine] | 0.511
O=NN(CCCl)C(=O)NC1CCCCC1 [Lomustine] | -0.538
CC(=O)CCCCn1c(=O)c2c(ncn2C)n(C)c1=O [Pentoxifylline] | 0.0912
OCCn1cc(-c2cnc3nnn(Cc4ccc5ncccc5c4)c3n2)cn1 | -0.115
COc1ccc(CNc2nc(N3CCC[C@H]3CO)ncc2C(=O)NCc2ncccn2)cc1Cl [Avanafil] | -0.293
CCO[C@H]1OC(=O)C[C@@H]1NC(=O)[C@@H]1CCCN1C(=O)[C@@H](NC(=O)c1ccc(N)c(Cl)c1)C(C)(C)C | -0.159
CN(C)Cc1c(C(=O)NCCOc2ccc(C(=O)NO)cc2)oc2ccccc12 | 0.0243
O=C([O-])CC(O)(CC(=O)[O-])C(=O)[O-].O=C([O-])CC(O)(CC(=O)[O-])C(=O)[O-].[Bi+3].[K+].[K+].[K+].[K+].[K+] [Bismuth Subcitrate Potassium] | 0.0912
CCn1c(N)c(C(=O)NC)c(=O)c2ccc(C#C[C@@](C)(O)COC)nc21 | 0.145
CC1(C)CNc2cc(NC(=O)c3cccnc3NCc3ccncc3)ccc21.O=P(O)(O)O.O=P(O)(O)O [Motesanib Diphosphate (AMG-706)] | 0.568
COC(=O)Nc1ccc(-c2nc(N3CCOCC3)c3cnn(C4CCN(C(=O)OC)CC4)c3n2)cc1 | 0.113
Cl.O=C(O)/C=C/c1ccc(Cn2ccnc2)cc1 [Ozagrel HCl] | -0.177
Cc1ccc(NC(=O)c2ccc(CN3CC[C@H](N(C)C)C3)c(C(F)(F)F)c2)cc1Nc1ncc(-c2cncnc2)cn1 [Bafetinib (INNO-406)] | 0.773
Cc1cc(O)c2c(c1)C(=O)c1cccc(O)c1C2=O [Chrysophanic Acid] | -0.13

Exported with tabs: part of the list above.
Compound	Prob-Naive
CC1(C)CNc2cc(NC(=O)c3cccnc3NCc3ccncc3)ccc21.O=P(O)(O)O.O=P(O)(O)O [Motesanib Diphosphate (AMG-706)]	0.568
COC(=O)Nc1ccc(-c2nc(N3CCOCC3)c3cnn(C4CCN(C(=O)OC)CC4)c3n2)cc1	0.113

Following part:

Compound | Prob-Naive
NNC(=O)c1ccncc1.Nc1ccc(C(=O)O)c(O)c1 [Pasiniazid] | -0.35
Cc1cc(C)cc(NC(=O)Cc2ccc(OC(C)(C)C(=O)[O-])cc2)c1.[Na+] [Efaproxiral Sodium] | -0.252
CCCC(C(=O)OCCN(CC)CC)(c1ccccc1)c1ccccc1.Cl [Proadifen HCl] | 0.61
Cc1cnc(Nc2ccc(N3CCN(C)CC3)cc2)nc1Nc1cccc(S(=O)(=O)NC(C)(C)C)c1 | -0.06
CN1C2CCCC1CC(NC(=O)c1nn(C)c3ccccc13)C2.Cl (stereo not given) [Granisetron HCl] | -0.413
NC(=O)c1cnccn1 [Pyrazinamide] | -0.0907
CCC[C@@H]1C[C@@H](C(=O)N[C@@H](C(C)Cl)[C@H]2O[C@@H](SC)[C@H](O)[C@@H](O)[C@H]2O)N(C)C1.Cl (stereo not given in full) [Clindamycin HCl] | 0.208
Cc1ncc([N+](=O)[O-])n1CC(C)O (stereo not given) [Secnidazole] | 0
OC[C@H]1O[C@@H](Oc2cc(O)cc(/C=C/c3ccc(O)cc3)c2)[C@@H](O)[C@@H](O)[C@@H]1O [Polydatin] | 0.208
O=C(Nc1cccc(Nc2ncc(Br)c(NCCc3cnc[nH]3)n2)c1)N1CCCC1 | 0.252
CC(=O)NS(=O)(=O)c1ccc(NC(=O)c2ccccc2C(=O)O)cc1 [Phthalylsulfacetamide] | -0.557
O=c1c(O)c(-c2cc(O)c(O)c(O)c2)oc2cc(O)cc(O)c12 [Myricetin] | -0.119
COc1ccc(C2CNC(=O)C2)cc1OC1CCCC1 (stereo not given) [Rolipram] | -1.01
CNS(=O)(=O)CCc1ccc2[nH]cc(C3CCN(C)CC3)c2c1.Cl [Naratriptan] | 0.126
CCN1CCN(Cc2ccc(Nc3ncc(F)c(-c4cc(F)c5nc(C)n(C(C)C)c5c4)n3)nc2)CC1.CS(=O)(=O)O | 0.0692
Cc1c(-c2ccccc2)oc2c(C(=O)OCCN3CCCCC3)cccc2c1=O.Cl [Flavoxate HCl] | 0.185
Cc1ccccc1CN1C2=NCCN2C(=O)C2=C1CCN(Cc1ccccc1)C2 | 0.0457
CN[C@H](CC(=O)O)C(=O)O [NMDA (N-Methyl-D-aspartic acid)] | 0.42
C[C@H]1C[C@H]2[C@@H]3CCC4=CC(=O)C=C[C@]4(C)[C@@H]3C(=O)C[C@]2(C)[C@]1(O)C(=O)CO [Meprednisone] | 0.454
